Laboratory results: publication doi:10.1101/2023.01.14.524051
These are yes or no findings as the source states them, for the method shown. Binding seen in cells or lysates may run through a third protein. Some binding calls cover weakened binding; strength is not graded here. For some of these results: Sequences can lack the tags named with a protein.

Chains of the proteins cited; added tags and fusions are not shown.
UniProt P21730: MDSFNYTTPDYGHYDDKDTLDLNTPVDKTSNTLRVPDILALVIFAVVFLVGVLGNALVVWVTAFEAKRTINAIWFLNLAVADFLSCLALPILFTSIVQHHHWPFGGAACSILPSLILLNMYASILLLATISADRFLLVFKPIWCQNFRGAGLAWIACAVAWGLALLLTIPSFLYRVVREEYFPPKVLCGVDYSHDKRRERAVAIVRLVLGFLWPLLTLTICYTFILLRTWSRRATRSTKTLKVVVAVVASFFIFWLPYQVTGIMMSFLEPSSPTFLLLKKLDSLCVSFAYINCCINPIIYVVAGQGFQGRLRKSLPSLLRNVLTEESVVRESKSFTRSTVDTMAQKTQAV
UniProt P49407: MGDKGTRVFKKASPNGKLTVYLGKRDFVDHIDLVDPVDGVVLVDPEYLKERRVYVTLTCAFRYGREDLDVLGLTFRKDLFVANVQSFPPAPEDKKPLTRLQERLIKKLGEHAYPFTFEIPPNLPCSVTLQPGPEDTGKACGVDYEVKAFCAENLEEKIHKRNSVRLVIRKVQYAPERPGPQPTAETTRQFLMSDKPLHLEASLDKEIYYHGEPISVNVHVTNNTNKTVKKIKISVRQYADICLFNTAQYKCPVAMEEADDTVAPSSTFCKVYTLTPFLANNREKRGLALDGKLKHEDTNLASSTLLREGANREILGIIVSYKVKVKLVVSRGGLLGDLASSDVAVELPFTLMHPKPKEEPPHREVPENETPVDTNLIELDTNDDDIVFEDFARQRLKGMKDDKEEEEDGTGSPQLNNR
UniProt P32121: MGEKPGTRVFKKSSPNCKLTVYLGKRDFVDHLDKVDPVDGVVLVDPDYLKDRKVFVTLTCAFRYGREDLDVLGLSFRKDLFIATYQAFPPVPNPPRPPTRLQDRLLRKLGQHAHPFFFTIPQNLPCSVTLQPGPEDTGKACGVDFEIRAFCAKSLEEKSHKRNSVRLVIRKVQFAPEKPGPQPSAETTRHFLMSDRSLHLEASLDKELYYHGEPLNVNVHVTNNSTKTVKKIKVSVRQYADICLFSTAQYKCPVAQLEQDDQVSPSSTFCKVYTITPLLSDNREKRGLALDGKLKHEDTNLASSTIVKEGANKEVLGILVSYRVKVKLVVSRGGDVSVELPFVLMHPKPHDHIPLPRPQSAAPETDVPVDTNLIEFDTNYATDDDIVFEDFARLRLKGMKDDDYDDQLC

Legend:
[1] = target: T1, C-terminally SmBiT-tagged mC5aR1 (mouse) (UniProt P30993); assay: split reporter
T1 sequence: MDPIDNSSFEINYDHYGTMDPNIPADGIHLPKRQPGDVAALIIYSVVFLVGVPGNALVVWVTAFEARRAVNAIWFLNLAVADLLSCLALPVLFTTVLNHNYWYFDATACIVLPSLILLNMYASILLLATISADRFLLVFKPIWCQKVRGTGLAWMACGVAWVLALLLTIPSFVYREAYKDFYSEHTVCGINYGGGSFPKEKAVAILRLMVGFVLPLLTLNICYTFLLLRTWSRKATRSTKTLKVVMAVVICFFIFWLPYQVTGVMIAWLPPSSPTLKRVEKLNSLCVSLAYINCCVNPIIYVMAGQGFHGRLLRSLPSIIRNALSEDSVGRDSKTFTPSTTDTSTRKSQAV

[2] = target: C-terminally SmBiT-tagged hC5aR1 (human) (UniProt P21730); assay: split reporter

Row | Substance | binding [1] | binding [2]
1 | βarr1 containing an LgBiT tag on its N-terminal end (from UniProt P49407 1-418) | binds | binds
2 | βarr2 containing an LgBiT tag on its N-terminal end (from UniProt P32121 1-409) | binds | binds
